Assay results published in US20190135908A1 (Novartis, published 2019).
No constants are given. Whether binding was seen depends on the method and setting. Some entries that bind do so weakly or less than the wild type. For some assays here: Tags and fused reporters may be left off the sequences shown.

Key:
[1] = target: T1, Cyno GDF15 (Macaca fascicularis (cynomolgus monkey)) (UniProt G7PWZ3); assay: direct ELISA: GDF15 variant coated on the plate, serially diluted antibody, anti-human IgG-HRP detection
T1 sequence (GDF15, looked up): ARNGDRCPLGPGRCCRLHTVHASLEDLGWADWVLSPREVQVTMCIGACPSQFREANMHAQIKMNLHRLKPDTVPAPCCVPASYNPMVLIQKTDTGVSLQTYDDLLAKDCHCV

[2] = target: T2, GDF15 mutant Q295R (wrist domain), albumin fusion (human) (UniProt Q99988); assay: direct ELISA on coated albumin-fusion GDF15 variant
T2 sequence: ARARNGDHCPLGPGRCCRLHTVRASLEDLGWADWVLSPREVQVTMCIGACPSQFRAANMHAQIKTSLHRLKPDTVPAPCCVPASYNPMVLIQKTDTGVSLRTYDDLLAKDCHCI

B1: ABGDF15-D (antibody, human IgG1, lambda, V domains shown)
VH: EVQLVQSGAEVKKPGESLKISCKGSGYSFTSYWIGWVRQMPGKGLEWMGVIDPDGSYTIYSPSFQGQVTISADKSISTAYLQWSSLKASDTAMYYCARYGRYGTYFDYWGQGTLVTVSS
VL: QSVLTQPPSVSGAPGQRVTISCSGSSSNIGVLYVNWYQQLPGTAPKLLIYSNDNRPSGVPDRFSGSKSGTSASLAITGLQAEDEADYYCQSWDSSSNYVFGGGTKLTVLG
notes: captured through anti-human Fc in the Biacore assay
[1]
  binding: binds

B2: ABGDF15-E (antibody, human IgG1, lambda, V domains shown)
VH: EVQLVQSGAEVKKPGESLKISCKGSGYSFTSYWIGWVRQMPGKGLEWMGVIDPGGSYTIYSPSFQGQVTISADKSISTAYLQWSSLKASDTAMYYCARYGRYGTYFDYWGQGTLVTVSS
VL: QSVLTQPPSVSGAPGQRVTISCSGSSSNIGVLYVNWYQQLPGTAPKLLIYSNDNRPSGVPDRFSGSKSGTSASLAITGLQAEDEADYYCQSWDSSSNYVFGGGTKLTVLG
notes: as for B1
[1]
  binding: binds

B3: ABGDF15-F (antibody, human IgG1, lambda, V domains shown)
VH: EVQLVQSGAEVKKPGESLKISCKGSGYSFTSYWIGWVRQMPGKGLEWMGVIDPSGSYTIYSPSFQGQVTISADKSISTAYLQWSSLKASDTAMYYCARYGRYGTYFDYWGQGTLVTVSS
VL: QSVLTQPPSVSGAPGQRVTISCSGSSSNIGVLYVNWYQQLPGTAPKLLIYSNDNRPSGVPDRFSGSKSGTSASLAITGLQAEDEADYYCQSWDSSSNYVFGGGTKLTVLG
notes: as for B1
[2]
  binding: binds
[1]
  binding: binds

B4: ABGDF15-G (antibody, human IgG1, kappa, V domains shown)
VH: QVQLVQSGAEVKKPGSSVKVSCKASGGTFSSHYINWVRQAPGQGLEWMGGIIPAFGGANYAQKFQGRVTITADESTSTAYMELSSLRSEDTAVYYCARFGSVYVSRYSSYYHMDVWGQGTLVTVSS
VL: DIQMTQSPSSLSASVGDRVTITCRASQTIYRSLAWYQQKPGKAPKLLIYGASILQSGVPSRFSGSGSGTDFTLTISSLQPEDFATYYCLQRYTSPFTFGQGTKVEIKR
notes: as for B1
[2]
  binding: binds
[1]
  binding: binds

B5: ABGDF15-A (antibody, human IgG1, kappa, V domains shown)
VH: EVQLVQSGAEVKKPGESLKISCKGSGYSFTDYWISWVRQMPGKGLEWMGIIDPSGSYTIYSPSFQGQVTISADKSISTAYLQWSSLKASDTAMYYCARVSYYGGYFDIWGQGTLVTVSS
VL: DIQMTQSPSSLSASVGDRVTITCRASQSISNNLNWYQQKPGKAPKLLIYAASNLQSGVPSRFSGSGSGTDFTLTISSLQPEDFATYYCFQLDHSPFTFGQGTKVEIKR
notes: as for B1
[2]
  binding: binds
[1]
  binding: binds
